# Assay results taken from PubChem BioAssay AID248 (DTP/NCI, 2004).
# The list shows only some results of the screen, not a fair sample: it is rich in T/C values a quarter to a half above the control, in often repeated tests (any T/C) and in doses without a T/C. Further doses and runs are listed elsewhere. T/C gives the treated animals as a percentage of the vehicle group. Some doses have a count of surviving animals in place of a T/C: the source holds a T/C of zero for them, seemingly a mark for toxic or unscored doses. Counts of survivors are from the toxicity check (mostly the fifth day) where no day follows; animals may have died later. Schedule codes are those of the source, taken here to give the interval after Q, in days (D) or hours (H), and the number of doses after X. Some schedule codes hold Z or #, which are not explained here. Some molecules as drawn cover several salts, stereoisomers or complexes of the source; a dose is that of the sample tested. For survival time, the PubChem record calls one and a half times the control and up active, and a quarter to a half above the control has no call in these data; cut-offs in other NCI protocols can differ. Some entries were tested several times; the results are listed from low to high. Some T/C values carry the count of animals alive at the toxicity check (mostly the fifth day); without a count, all were alive then.
# Tested on: L1210 leukemia ip in BDF1 mice, survival T/C
# Assay: NCI In Vivo Anticancer Drug Screen. Data for tumor model L1210 Leukemia (intraperitoneal) in B6D2F1 (BDF1) mice
# Settings: higher T/C = longer survival
smiles,measurement,setting,value
O=C(Nc1ccc(C2=NCCN2)cc1)c1ccc(C(=O)Nc2ccc(C3=NCCN3)cc2)cc1,T/C,"T/C endpoint: mean survival time, dose: 0.15 mg/kg/injection, schedule: Q01DX Z (ip), vehicle: saline",137 % of control [5 of 6 alive]
same,T/C,"T/C endpoint: mean survival time, dose: 0.31 mg/kg/injection, schedule: Q01DX Z (ip), vehicle: saline",127 % of control
same,T/C,"T/C endpoint: mean survival time, dose: 0.63 mg/kg/injection, schedule: Q01DX Z (ip), vehicle: saline",133 % of control
same,T/C,"T/C endpoint: mean survival time, dose: 1.25 mg/kg/injection, schedule: Q01DX Z (ip), vehicle: saline",130 % of control
same,T/C,"T/C endpoint: mean survival time, dose: 1.25 mg/kg/injection, schedule: Q#A X Z (ip), vehicle: saline",126 % of control
same,T/C,"T/C endpoint: mean survival time, dose: 2.0 mg/kg/injection, schedule: Q#A X Z (ip), vehicle: saline",131 % of control
same,T/C,"T/C endpoint: mean survival time, dose: 2.5 mg/kg/injection, schedule: Q#A X Z (ip), vehicle: saline",137 and 138 % of control
same,T/C,"T/C endpoint: mean survival time, dose: 4.0 mg/kg/injection, schedule: Q01DX Z (ip), vehicle: methylcellulose (MC)",130 % of control
same,T/C,"T/C endpoint: mean survival time, dose: 5.0 mg/kg/injection, schedule: Q01DX015 (ip), vehicle: other",143 % of control
same,T/C,"T/C endpoint: mean survival time, dose: 5.0 mg/kg/injection, schedule: Q01DX Z (sc), vehicle: acid diluted with saline",149 % of control
same,T/C,"T/C endpoint: mean survival time, dose: 6.0 mg/kg/injection, schedule: Q01DX Z (ip), vehicle: methylcellulose (MC)",139 % of control
same,T/C,"T/C endpoint: mean survival time, dose: 7.5 mg/kg/injection, schedule: Q01DX Z (ip), vehicle: carboxymethylcellulose (CMC)",125 % of control
same,T/C,"T/C endpoint: mean survival time, dose: 8.0 mg/kg/injection, schedule: Q#A X Z (ip), vehicle: saline",135 % of control
same,T/C,"T/C endpoint: mean survival time, dose: 9.0 mg/kg/injection, schedule: Q01DX015 (ip), vehicle: carboxymethylcellulose (CMC)",131 % of control
same,T/C,"T/C endpoint: mean survival time, dose: 9.0 mg/kg/injection, schedule: Q01DX015 (ip), vehicle: other",129 % of control
same,T/C,"T/C endpoint: mean survival time, dose: 9.0 mg/kg/injection, schedule: Q01DX Z (ip), vehicle: methylcellulose (MC)",132 % of control
same,T/C,"T/C endpoint: mean survival time, dose: 13.0 mg/kg/injection, schedule: Q01DX Z (ip), vehicle: methylcellulose (MC)",143 % of control
same,T/C,"T/C endpoint: mean survival time, dose: 14.0 mg/kg/injection, schedule: Q01DX015 (ip), vehicle: carboxymethylcellulose (CMC)",141 % of control
same,T/C,"T/C endpoint: mean survival time, dose: 14.0 mg/kg/injection, schedule: Q01DX015 (ip), vehicle: other",133 % of control
same,T/C,"T/C endpoint: mean survival time, dose: 14.0 mg/kg/injection, schedule: Q01DX Z (ip), vehicle: methylcellulose (MC)",147 % of control
same,T/C,"T/C endpoint: mean survival time, dose: 15.6 mg/kg/injection, schedule: Q01DX Z (ip), vehicle: other",146 % of control
same,T/C,"T/C endpoint: mean survival time, dose: 16.0 mg/kg/injection, schedule: Q01DX Z (ip), vehicle: methylcellulose (MC)",132 % of control
same,T/C,"T/C endpoint: mean survival time, dose: 16.0 mg/kg/injection, schedule: Q01DX Z (ip), vehicle: saline",126 % of control
same,T/C,"T/C endpoint: mean survival time, dose: 16.0 mg/kg/injection, schedule: Q#A X Z (ip), vehicle: methylcellulose (MC)",128 % of control
same,T/C,"T/C endpoint: mean survival time, dose: 17.5 mg/kg/injection, schedule: Q07DX Z (ip), vehicle: saline",127 % of control
same,survivor count,"T/C endpoint: mean survival time, dose: 20.0 mg/kg/injection, schedule: Q01DX Z (iv), vehicle: acid diluted with saline",0 of 7
same,T/C,"T/C endpoint: mean survival time, dose: 21.0 mg/kg/injection, schedule: Q01DX Z (ip), vehicle: methylcellulose (MC)",144 % of control
same,T/C,"T/C endpoint: mean survival time, dose: 28.0 mg/kg/injection, schedule: Q07DX Z (ip), vehicle: saline",138 % of control
same,T/C,"T/C endpoint: mean survival time, dose: 30.0 mg/kg/injection, schedule: Q01DX015 (ip), vehicle: other",127 % of control
same,T/C,"T/C endpoint: mean survival time, dose: 30.0 mg/kg/injection, schedule: Q01DX Z (ip), vehicle: carboxymethylcellulose (CMC)",146 % of control
same,T/C,"T/C endpoint: mean survival time, dose: 32.0 mg/kg/injection, schedule: Q01DX Z (ip), vehicle: methylcellulose (MC)",143 % of control
same,survivor count,"T/C endpoint: mean survival time, dose: 32.0 mg/kg/injection, schedule: Q01DX Z (ip), vehicle: saline",1 of 7
same,T/C,"T/C endpoint: mean survival time, dose: 35.0 mg/kg/injection, schedule: Q01DX001 (ip), vehicle: saline","103, 125, 137, 144 % of control"
same,T/C,"T/C endpoint: mean survival time, dose: 35.0 mg/kg/injection, schedule: Q07DX Z (ip), vehicle: saline",143 % of control
same,survivor count,"T/C endpoint: mean survival time, dose: 40.0 mg/kg/injection, schedule: Q01DX005 (iv), vehicle: saline",3 of 6
same,survivor count,"T/C endpoint: mean survival time, dose: 40.0 mg/kg/injection, schedule: Q01DX Z (iv), vehicle: acid diluted with saline",0 of 7
same,T/C,"T/C endpoint: mean survival time, dose: 45.0 mg/kg/injection, schedule: Q01DX015 (ip), vehicle: other",134 % of control
same,T/C,"T/C endpoint: mean survival time, dose: 48.0 mg/kg/injection, schedule: Q03DX Z (ip), vehicle: saline",143 % of control
same,T/C,"T/C endpoint: mean survival time, dose: 56.0 mg/kg/injection, schedule: Q07DX Z (ip), vehicle: methylcellulose (MC)",127 % of control
same,T/C,"T/C endpoint: mean survival time, dose: 56.0 mg/kg/injection, schedule: Q07DX Z (ip), vehicle: saline",133 % of control
same,T/C,"T/C endpoint: mean survival time, dose: 60.0 mg/kg/injection, schedule: Q01DX015 (ip), vehicle: other",135 % of control
same,T/C,"T/C endpoint: mean survival time, dose: 60.0 mg/kg/injection, schedule: Q01DX Z (ip), vehicle: carboxymethylcellulose (CMC)",134 % of control
same,T/C,"T/C endpoint: mean survival time, dose: 62.5 mg/kg/injection, schedule: Q01DX004 (im), vehicle: saline",125 % of control
same,T/C,"T/C endpoint: mean survival time, dose: 64.0 mg/kg/injection, schedule: Q01DX009 (ip), vehicle: saline",134 and 136 % of control
same,T/C,"T/C endpoint: mean survival time, dose: 89.0 mg/kg/injection, schedule: Q01DX001 (ip), vehicle: other",130 % of control
same,T/C,"T/C endpoint: mean survival time, dose: 96.0 mg/kg/injection, schedule: Q03DX Z (ip), vehicle: methylcellulose (MC)",140 % of control
same,T/C,"T/C endpoint: mean survival time, dose: 112.0 mg/kg/injection, schedule: Q07DX Z (ip), vehicle: methylcellulose (MC)",139 % of control
same,T/C,"T/C endpoint: mean survival time, dose: 112.0 mg/kg/injection, schedule: Q07DX Z (ip), vehicle: saline",148 % of control
same,T/C,"T/C endpoint: mean survival time, dose: 125.0 mg/kg/injection, schedule: Q01DX004 (im), vehicle: saline",142 % of control
same,T/C,"T/C endpoint: mean survival time, dose: 125.0 mg/kg/injection, schedule: Q01DX Z (sc), vehicle: steroid suspending solution",129 % of control
same,T/C,"T/C endpoint: mean survival time, dose: 128.0 mg/kg/injection, schedule: Q01DX009 (ip), vehicle: saline",142 % of control
same,T/C,"T/C endpoint: mean survival time, dose: 130.0 mg/kg/injection, schedule: Q01DX001 (ip), vehicle: other",147 % of control
same,T/C,"T/C endpoint: mean survival time, dose: 140.0 mg/kg/injection, schedule: Q01DX001 (ip), vehicle: saline",144 % of control
same,survivor count,"T/C endpoint: mean survival time, dose: 192.0 mg/kg/injection, schedule: Q03DX Z (ip), vehicle: saline",1 of 6
same,T/C,"T/C endpoint: mean survival time, dose: 195.0 mg/kg/injection, schedule: Q01DX001 (ip), vehicle: carboxymethylcellulose (CMC)",138 % of control
same,T/C,"T/C endpoint: mean survival time, dose: 195.0 mg/kg/injection, schedule: Q01DX001 (ip), vehicle: saline",129 % of control
same,survivor count,"T/C endpoint: mean survival time, dose: 224.0 mg/kg/injection, schedule: Q07DX Z (ip), vehicle: methylcellulose (MC)",1 of 7
same,survivor count,"T/C endpoint: mean survival time, dose: 224.0 mg/kg/injection, schedule: Q07DX Z (ip), vehicle: saline",3 of 6
same,survivor count,"T/C endpoint: mean survival time, dose: 250.0 mg/kg/injection, schedule: Q01DX Z (ip), vehicle: other",1 of 7
same,T/C,"T/C endpoint: mean survival time, dose: 250.0 mg/kg/injection, schedule: Q01DX Z (sc), vehicle: steroid suspending solution",130 % of control
same,T/C,"T/C endpoint: mean survival time, dose: 280.0 mg/kg/injection, schedule: Q01DX001 (ip), vehicle: saline","131, 149, 241, 296 % of control [5 of 6 alive]"
same,T/C,"T/C endpoint: mean survival time, dose: 320.0 mg/kg/injection, schedule: Q01DX Z (ip), vehicle: saline",148 % of control [5 of 6 alive]
same,T/C,"T/C endpoint: mean survival time, dose: 320.0 mg/kg/injection, schedule: Q#A X Z (ip), vehicle: saline",148 % of control
same,survivor count,"T/C endpoint: mean survival time, dose: 384.0 mg/kg/injection, schedule: Q03DX Z (ip), vehicle: methylcellulose (MC)",0 of 7
same,survivor count,"T/C endpoint: mean survival time, dose: 444.0 mg/kg/injection, schedule: Q01DX001 (ip), vehicle: carboxymethylcellulose (CMC)",0 of 10
same,survivor count,"T/C endpoint: mean survival time, dose: 444.0 mg/kg/injection, schedule: Q01DX001 (ip), vehicle: other",3 of 10
same,T/C,"T/C endpoint: mean survival time, dose: 444.0 mg/kg/injection, schedule: Q01DX001 (ip), vehicle: saline",133 % of control
same,survivor count,"T/C endpoint: mean survival time, dose: 448.0 mg/kg/injection, schedule: Q07DX Z (ip), vehicle: methylcellulose (MC)",3 of 7
same,survivor count,"T/C endpoint: mean survival time, dose: 448.0 mg/kg/injection, schedule: Q07DX Z (ip), vehicle: saline",0 of 6
same,T/C,"T/C endpoint: mean survival time, dose: 560.0 mg/kg/injection, schedule: Q01DX001 (ip), vehicle: saline",135 % of control
same,survivor count,"T/C endpoint: mean survival time, dose: 666.0 mg/kg/injection, schedule: Q01DX001 (ip), vehicle: carboxymethylcellulose (CMC)",0 of 10
same,survivor count,"T/C endpoint: mean survival time, dose: 666.0 mg/kg/injection, schedule: Q01DX001 (ip), vehicle: other",2 of 10
same,survivor count,"T/C endpoint: mean survival time, dose: 896.0 mg/kg/injection, schedule: Q07DX Z (ip), vehicle: methylcellulose (MC)",1 of 7
same,survivor count,"T/C endpoint: mean survival time, dose: 1120.0 mg/kg/injection, schedule: Q01DX001 (ip), vehicle: saline",3 of 6
same,survivor count,"T/C endpoint: mean survival time, dose: 1120.0 mg/kg/injection, schedule: Q07DX Z (ip), vehicle: saline",2 of 6
same,survivor count,"T/C endpoint: mean survival time, dose: 1280.0 mg/kg/injection, schedule: Q01DX Z (ip), vehicle: saline",1 of 6
same,T/C,"T/C endpoint: mean survival time, dose: 1875.0 micrograms/kg/injection, schedule: Q01DX Z (ip), vehicle: carboxymethylcellulose (CMC)",131 % of control
same,T/C,"T/C endpoint: median survival time, dose: 32.0 mg/kg/injection, schedule: Q01DX009 (ip), vehicle: saline",138 % of control
same,T/C,"T/C endpoint: median survival time, dose: 64.0 mg/kg/injection, schedule: Q01DX009 (ip), vehicle: saline",127 % of control
